Values from PubChem BioAssay AID1259308 (NCATS, 2017)
Purpose: 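Candidate targets for better recombinant protein yield in mammalian cells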 (primary screen). Cells: human HEK293 embryonic kidney cells stably expressing firefly luciferase (HEK-CMV-Luc2-Hygro). Reagents: single siRNA against human genes, 0.8 pmol siRNA per well. Timing: 72 h. Measured: 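Luciferase light (ONE-Glo) measured on one replicate plate set and viability (CellTiter-Glo) on the other, scaled to a negative control siRNA, with robust z-scores and luciferase per cell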. Direction: total luciferase, z-score and total luciferase, % of control: higher = more reporter protein produced. Hit rule: 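An siRNA counts as active if its total luciferase robust z-score exceeds 3; genes with two or more such siRNAs out of three were retested with fresh siRNAs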. Calls: active = raised luciferase; inactive = no rise.
Here is an unselected part of about 59,000 deposited reagents. In the full data, about 1,510 (2.6%) were called active. 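Calls use total luciferase alone and ignore viability, so some active siRNAs may act by altering cell number.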 Further read-outs or replicates are left out here. Reagent sequences are not shown.

With CDK13 (cyclin dependent kinase 13) [SID160720440], what was measured?
total luciferase, z-score: -1.34; total luciferase, % of control: 55.3; activity call: inactive

What is on record for CDK13 (cyclin dependent kinase 13) [SID160720441]?
total luciferase, z-score: 1.69; total luciferase, % of control: 116; activity call: inactive

With CDK13 (cyclin dependent kinase 13) [SID160720442], what does the deposit list?
total luciferase, z-score: 0.916; total luciferase, % of control: 100; activity call: inactive

Which result is listed for PCNX1 (pecanex 1) [SID160734609]?
total luciferase, z-score: 0.368; total luciferase, % of control: 89.2; activity call: inactive

How did the screen score PCNX1 (pecanex 1) [SID160734620]?
total luciferase, z-score: -0.951; total luciferase, % of control: 63; activity call: inactive

With PCNX1 (pecanex 1) [SID160734630], how do the results read?
total luciferase, z-score: 0.888; total luciferase, % of control: 99.5; activity call: inactive

For TMEM35A (transmembrane protein 35A) [SID160747032], how do the results read?
total luciferase, z-score: 0.0693; total luciferase, % of control: 83.3; activity call: inactive

What is on record for TMEM35A (transmembrane protein 35A) [SID160747033]?
total luciferase, z-score: 1.36; total luciferase, % of control: 109; activity call: inactive

What did the screen give for TMEM35A (transmembrane protein 35A) [SID160747034]?
total luciferase, z-score: 0.437; total luciferase, % of control: 90.6; activity call: inactive

For PDGFRL (platelet derived growth factor receptor like) [SID160713785], what was measured?
total luciferase, z-score: -0.818; total luciferase, % of control: 65.6; activity call: inactive

What is on record for PDGFRL (platelet derived growth factor receptor like) [SID160714829]?
total luciferase, z-score: 2.34; total luciferase, % of control: 128; activity call: inactive

With PDGFRL (platelet derived growth factor receptor like) [SID160731382], what was measured?
total luciferase, z-score: -1.28; total luciferase, % of control: 56.5; activity call: inactive

What did the screen give for RBFOX1 (RNA binding fox-1 homolog 1) [SID160742055]?
total luciferase, z-score: -1.87; total luciferase, % of control: 44.6; activity call: inactive

With RBFOX1 (RNA binding fox-1 homolog 1) [SID160742056], what does the deposit list?
total luciferase, z-score: -0.031; total luciferase, % of control: 81.3; activity call: inactive

Which result is listed for RBFOX1 (RNA binding fox-1 homolog 1) [SID160742058]?
total luciferase, z-score: 0.532; total luciferase, % of control: 92.5; activity call: inactive

With HIC2 (HIC ZBTB transcriptional repressor 2) [SID160735495], how do the results read?
total luciferase, z-score: 0.742; total luciferase, % of control: 96.6; activity call: inactive

What is on record for HIC2 (HIC ZBTB transcriptional repressor 2) [SID160735496]?
total luciferase, z-score: -0.33; total luciferase, % of control: 75.3; activity call: inactive

For HIC2 (HIC ZBTB transcriptional repressor 2) [SID160735497], what does the deposit list?
total luciferase, z-score: -0.846; total luciferase, % of control: 65.1; activity call: inactive

What did the screen give for BTBD1 (BTB domain containing 1) [SID160741382]?
total luciferase, z-score: -0.232; total luciferase, % of control: 77.3; activity call: inactive

What is on record for BTBD1 (BTB domain containing 1) [SID160741383]?
total luciferase, z-score: 0.216; total luciferase, % of control: 86.2; activity call: inactive

For BTBD1 (BTB domain containing 1) [SID160741384], how do the results read?
total luciferase, z-score: 1.52; total luciferase, % of control: 112; activity call: inactive
